The source of these data is PubChem BioAssay AID445 (National Center for Advancing Translational Sciences (NCATS), 2006).

This is one part of the list. Further columns of the screen follow, without active or inactive calls. Compounds called inactive in the main read-out are mostly missing here. Potencies come from curve fits of mixed quality, noted in brackets.

The nature of this assay: IkB Signaling. The conditions noted are these: ABC-DLBCL IkBa-CBG/CBR dual luciferase ratio (green luciferase fused to IkBa over red control in OCI-Ly3 lymphoma cells), 4 h; measured here: control luc red channel unless noted. An outline of the steps:
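In this assay, an IκBα–CBG68 fusion accumulates when IKK-driven degradation is blocked; native CBR normalizes for cell number. OCI-Ly3 cells were treated 4 h with compound and doxycycline, then green and red light read after Chroma-Glo addition.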
For `Cc1cc(=O)oc2c1ccc1oc(/C(=N/O)c3ccccc3)c(C)c12`, the AC50 was 10 µM [falling, partial curve].

For the compound `COC(=O)c1c(SC)nc2ccccc2c1OCc1ccccc1C`, the AC50 is 10 µM [falling, full curve, poor fit].

As to `CC(C)(C)C(=O)c1sc(Nc2ccccc2)nc1N`, the AC50 is 20 µM [falling, partial curve].

On to `O=C(CN1CCCCC1)Nc1nnc(-c2ccccc2)s1`, for which the AC50 was 15.8 µM [falling, partial curve].

Turning to `NC(=O)c1cc2ccc(O)cc2oc1=NCc1ccccc1`, the AC50 is 10 µM [falling, partial curve].

Turning to `CCOc1ccccc1NC(=O)c1c(NC(=O)c2ccccc2)sc2c1CCCC2`, the AC50 is 12.6 µM [falling, partial curve].

As to `CCOc1ccccc1CNC(=O)c1cnc2sc(N3CCCCCC3)nn2c1=O`, the AC50 was 25.1 µM [falling, single point].

As for `CCc1ccc(Oc2c(C(F)(F)F)oc3c(CN4CCN(C)CC4)c(O)ccc3c2=O)cc1`, the AC50 was 15.8 µM [falling, single point].

For `O=C(Cn1cc(SCc2cccc(Cl)c2)c2ccccc21)N1CCCCCC1`, the AC50 was 12.6 µM [falling, partial curve].

Consider `CCc1ccc(S(=O)(=O)NCCc2csc3nc(-c4ccccc4)nn23)s1`, for which the AC50 was 39.8 µM [falling, single point].

Consider `COc1ccccc1CN(Cc1ccco1)c1cnc(S(C)(=O)=O)nc1C(=O)Nc1cc(C)ccc1C`, for which the AC50 is 10 µM [falling, partial curve].

On to `O=C(NCCc1csc2nc(-c3ccc(F)cc3)nn12)c1cccc(C(F)(F)F)c1`, for which the AC50 is 39.8 µM [falling, single point].

On to `COc1cccc(C(=O)NCc2nc(-c3ccccc3)no2)c1OC`, for which the AC50 was 20 µM [falling, single point].

On to `Cc1ccc(-c2noc(CCC(=O)N3CCN(c4cccc(C(F)(F)F)c4)CC3)n2)cc1`, for which the AC50 was 15.8 µM [falling, partial curve].

Take `Cc1ccc(C)c(NC(=O)c2ccc3nc(CCc4ccccc4)oc3c2)c1`: the AC50 was 0.1 µM [rising, full curve, poor fit].

With `CCOC(=O)CNS(=O)(=O)c1cc(-c2nnc(Nc3cccc(O)c3)c3ccccc23)ccc1C`, the AC50 was 25.1 µM [falling, partial curve].

Consider `CCCc1ccc(C2Sc3ccccc3NC3=C2C(=O)c2ccccc23)cc1` (centres undefined), for which the AC50 was 10 µM [falling, partial curve].

With `COc1ccc(N2CCN(Cc3nc4c(c(=O)n(C)c(=O)n4C)n3CCc3ccccc3)CC2)cc1`, the AC50 was 39.8 µM [falling, single point].

In the case of `CCCOc1cccc(NC(=O)c2cc(C)oc2C)c1`, the AC50 was 25.1 µM [falling, partial curve].

As to `CCn1cc(CNC(=O)c2cc(-c3ccc(C)c(C)c3)nc3ccccc23)c(C)n1`, the AC50 is 25.1 µM [falling, single point].

For `COc1ccc(C(=O)Nc2cc(OC)ccc2OC)cc1`, the AC50 was 31.6 µM [falling, single point].

In the case of `COCc1cc(=O)n2c(-c3ccccc3OC)n[nH]c2n1`, the AC50 was 12.6 µM [falling, partial curve].

As for `CCOc1ccccc1CNS(=O)(=O)c1ccc(-c2coc(C)n2)cc1`, the AC50 was 25.1 µM [falling, partial curve, poor fit].

Regarding `Cc1ccc(NC(=O)c2ccc(NC(=O)N3CCSc4nc(C)cc(C)c43)cc2)c(Cl)c1`, the AC50 is 31.6 µM [rising, partial curve].

On to `O=C(Nc1cccc(Oc2ccc3c(c2)C(=O)NC3=O)c1)c1ccco1`, for which the AC50 was 12.6 µM [falling, partial curve].

In the case of `COCCN1C(=O)c2[nH]nc(-c3ccccc3O)c2C1c1ccc(Cl)c(Cl)c1` (centres undefined), the AC50 was 25.1 µM [falling, single point].

`COc1ccc(CCNC(=O)c2ccc3c(c2)N(Cc2ccccc2F)C(=O)c2ccccc2S3(=O)=O)cc1OC`: the AC50 is 0.501 µM [rising, full curve].

Turning to `Cc1ccc(CN(Cc2ccco2)C(=O)COc2cc(C)c(Cl)c(C)c2)cc1`, the AC50 is 12.6 µM [falling, partial curve].

`Cc1cc(C(=O)CNCc2ccco2)c(C)n1-c1ccc(F)cc1`: the AC50 is 12.6 µM [falling, partial curve].

For `CCN(CC)c1cc(C)c2cc(NC(=O)c3ccccc3OC)ccc2n1`, the AC50 was 31.6 µM [falling, single point].

For the compound `O=C(Nc1nc(-c2cccs2)cs1)c1ccc(S(=O)(=O)N2CCCCC2)cc1`, the AC50 is 5.01 µM [falling, partial curve].

`CSc1ccccc1NC(=O)CSc1nnnn1-c1ccccc1SC`: the AC50 is 7.94 µM [falling, partial curve].

Consider `O=C(Cn1ncc2c(=O)oc3ccccc3c21)NC1CC1`, for which the AC50 is 12.6 µM [falling, partial curve].

In the case of `CCn1c(=O)c2sccc2n2c(CCCC(=O)N3CCN(c4cc(Cl)ccc4C)CC3)nnc12`, the AC50 is 20 µM [falling, single point].

`O=C(CSc1nc(-c2ccc(F)cc2)[nH]c1-c1ccccc1)NCC1CCCO1` (centres undefined): the AC50 was 12.6 µM [falling, partial curve].

As to `N#CC1=C(N)SC(N)=C(C#N)C1Cc1ccccc1`, the AC50 is 3.98 µM [falling, full curve, poor fit].

On to `COc1ccccc1N1CCN(c2ncccc2-c2nc(-c3ccc(Cl)cc3)no2)CC1`, for which the AC50 is 3.16 µM [falling, single point].

With `CC1CCN(C(=O)CSc2nc(-c3ccccc3)no2)CC1`, the AC50 is 6.31 µM [falling, partial curve].

Consider `COc1cc(C(=O)N2CCC(c3nc4ccccc4o3)CC2)cc(OC)c1OC`, for which the AC50 is 20 µM [falling, partial curve, poor fit].

`Cc1c(NS(=O)(=O)c2ccccc2)cc(C(C)C)c(O)c1S(=O)(=O)c1ccc(Cl)cc1`: the AC50 is 15.8 µM [falling, partial curve].

As to `CCOc1ccc(C(=O)c2cn(Cc3ccccc3OC)c3ccc(F)cc3c2=O)cc1`, the AC50 was 39.8 µM [falling, single point].

As for `CC(=O)Nc1ccc(NC(=O)CSc2nc3ccccc3nc2N2CCOCC2)cc1`, the AC50 is 25.1 µM [falling, single point].

On to `Oc1c(C(c2ccccc2Cl)N2CCCC2)sc2nc(-c3ccco3)nn12` (centres undefined), for which the AC50 was 3.16 µM [rising, partial curve].

Turning to `COc1ccc(C(c2nnnn2C2CCCC2)N2CCc3ccccc3C2)cc1OC` (centres undefined), the AC50 was 31.6 µM [falling, partial curve].

Consider `Oc1c(-c2cc(-c3ccco3)[nH]n2)ccc2ccccc12`, for which the AC50 was 12.6 µM [falling, partial curve].

`COCCn1c(SCc2csc(-c3ccccc3)n2)nc2ccccc21`: the AC50 is 31.6 µM [falling, partial curve].

For `Cc1cccc(N2CCCn3c2nc2c3c(=O)n(CC(=O)OCc3ccccc3)c(=O)n2C)c1`, the AC50 was 6.31 µM [falling, partial curve].

Take `COc1ccc(CCNc2ncnc3c2cnn3-c2ccc(C)cc2)cc1`: the AC50 is 12.6 µM [falling, partial curve].

For the compound `OC(COc1ccc(Cl)c2ccccc12)CN1CCN(c2ccccn2)CC1` (centres undefined), the AC50 is 10 µM [falling, partial curve].

Turning to `CN1C(=O)c2ccccc2Sc2ccc(NC(=O)COc3ccc(F)cc3)cc21`, the AC50 was 25.1 µM [falling, partial curve].

Take `COC(=O)c1ccc(OCC2c3cc(OC)c(OC)cc3CCN2C(=O)c2cccc(C)c2)cc1` (centres undefined): the AC50 is 39.8 µM [falling, single point].

`COc1cccc(N2CCN(C(=O)CN3CCSc4ccc(S(=O)(=O)N(C)C)cc43)CC2)c1`: the AC50 was 10 µM [falling, partial curve, poor fit].

`CC(C)CCNC(=O)NC(=O)CSc1nnc(COc2ccccc2Cl)o1`: the AC50 was 39.8 µM [falling, single point].

Take `COc1cccc(CNC(=O)Cn2c(=O)n3nc(-c4cccc(C)c4)nc3c3ccccc32)c1`: the AC50 was 15.8 µM [rising, partial curve].

For `O=C(Cn1nc(Cc2cccnc2)c2ccccc2c1=O)N1CCN(c2ccc(F)cc2)CC1`, the half-maximal activity concentration (AC50) was 2 µM [falling, partial curve, poor fit].

Turning to `COc1ccc(Nc2ncnc3onc(C)c23)cc1Cl`, the AC50 was 39.8 µM [falling, single point].

On to `CCCSCCCNC(=O)C1CCCN(C(=O)c2cnn(-c3ccccc3)c2-n2cccc2)C1` (centres undefined), for which the AC50 is 20 µM [falling, single point].

On to `Cc1ccc(CCNC(=O)c2ccc3c(c2)N(Cc2cc(C)ccc2C)C(=O)c2ccccc2S3=O)cc1` (centres undefined), for which the AC50 is 1.26 µM [falling, full curve].

Turning to `Cc1cc(C)cc(NS(=O)(=O)c2ccc(-c3cc(C)no3)cc2)c1`, the AC50 is 15.8 µM [falling, partial curve].

Regarding `CCOC(=O)c1cccc(NS(=O)(=O)c2cc(Br)cc3c2N(C(=O)C2CC2)CC3)c1`, the half-maximal activity concentration (AC50) was 10 µM [falling, partial curve].

In the case of `O=C(CCNS(=O)(=O)c1cccc2nsnc12)Nc1ccc(F)cc1`, the concentration at half-maximal activity (AC50) was 0.0631 µM [falling, full curve, poor fit].

`Cc1csc2nc(-c3cccc(NC(=O)c4ccc(S(N)(=O)=O)cc4)c3)cn12`: the AC50 was 39.8 µM [falling, single point].

Take `COc1ccc(-c2nc3cc(NC(=O)COc4ccc(F)cc4)ccc3o2)cc1`: the AC50 is 3.16 µM [rising, full curve].

As to `COc1ccc(OC)c(CNC(=O)c2cc(=O)[nH]c3ccc(S(=O)(=O)N4CCCCC4C)cc23)c1` (centres undefined), the AC50 is 7.94 µM [rising, partial curve].
